Our source for the binding values is paper PMC12079403.

Results are given in words; binding and its absence hold for the method and conditions named. Binding seen in cells or lysates may run through a third protein. Some entries that bind do so weakly or less than the wild type. Sequences can lack the tags named with a protein.

The target in assay [1] is T1, HNRNPL (human (endogenous in the paper's human epithelial cell lines; line not named for this experiment)) (UniProt P14866).
T1 sequence: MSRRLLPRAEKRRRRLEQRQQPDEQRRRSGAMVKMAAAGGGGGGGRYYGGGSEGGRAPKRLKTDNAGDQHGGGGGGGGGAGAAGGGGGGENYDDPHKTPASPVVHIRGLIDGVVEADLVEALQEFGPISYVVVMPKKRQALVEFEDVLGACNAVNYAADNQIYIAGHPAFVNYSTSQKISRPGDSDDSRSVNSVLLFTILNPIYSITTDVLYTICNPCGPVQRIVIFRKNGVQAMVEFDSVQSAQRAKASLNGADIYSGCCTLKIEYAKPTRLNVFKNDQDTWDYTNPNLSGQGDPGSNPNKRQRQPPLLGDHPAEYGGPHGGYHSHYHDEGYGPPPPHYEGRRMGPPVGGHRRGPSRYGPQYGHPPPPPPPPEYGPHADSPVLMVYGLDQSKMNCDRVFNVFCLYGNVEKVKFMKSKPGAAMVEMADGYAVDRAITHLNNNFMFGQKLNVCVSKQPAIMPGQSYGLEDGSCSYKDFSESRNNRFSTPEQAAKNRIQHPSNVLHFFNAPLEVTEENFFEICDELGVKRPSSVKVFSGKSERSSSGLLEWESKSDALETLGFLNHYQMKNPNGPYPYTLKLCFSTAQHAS
The assay is described as follows: co-IP; cells with or without 2% CSE lysed in RIPA buffer; lysates incubated with anti-ADAR1 or anti-HNRNPL or normal IgG at 4 °C overnight, protein A + G beads 2 h, western blotting. In general terms: A western blot detects proteins with antibodies after separation by electrophoresis.

Assay [2] has as its target T2, ADAR1 (human (endogenous in the paper's human epithelial cell lines; line not named for this experiment)) (UniProt P55265).
T2 sequence: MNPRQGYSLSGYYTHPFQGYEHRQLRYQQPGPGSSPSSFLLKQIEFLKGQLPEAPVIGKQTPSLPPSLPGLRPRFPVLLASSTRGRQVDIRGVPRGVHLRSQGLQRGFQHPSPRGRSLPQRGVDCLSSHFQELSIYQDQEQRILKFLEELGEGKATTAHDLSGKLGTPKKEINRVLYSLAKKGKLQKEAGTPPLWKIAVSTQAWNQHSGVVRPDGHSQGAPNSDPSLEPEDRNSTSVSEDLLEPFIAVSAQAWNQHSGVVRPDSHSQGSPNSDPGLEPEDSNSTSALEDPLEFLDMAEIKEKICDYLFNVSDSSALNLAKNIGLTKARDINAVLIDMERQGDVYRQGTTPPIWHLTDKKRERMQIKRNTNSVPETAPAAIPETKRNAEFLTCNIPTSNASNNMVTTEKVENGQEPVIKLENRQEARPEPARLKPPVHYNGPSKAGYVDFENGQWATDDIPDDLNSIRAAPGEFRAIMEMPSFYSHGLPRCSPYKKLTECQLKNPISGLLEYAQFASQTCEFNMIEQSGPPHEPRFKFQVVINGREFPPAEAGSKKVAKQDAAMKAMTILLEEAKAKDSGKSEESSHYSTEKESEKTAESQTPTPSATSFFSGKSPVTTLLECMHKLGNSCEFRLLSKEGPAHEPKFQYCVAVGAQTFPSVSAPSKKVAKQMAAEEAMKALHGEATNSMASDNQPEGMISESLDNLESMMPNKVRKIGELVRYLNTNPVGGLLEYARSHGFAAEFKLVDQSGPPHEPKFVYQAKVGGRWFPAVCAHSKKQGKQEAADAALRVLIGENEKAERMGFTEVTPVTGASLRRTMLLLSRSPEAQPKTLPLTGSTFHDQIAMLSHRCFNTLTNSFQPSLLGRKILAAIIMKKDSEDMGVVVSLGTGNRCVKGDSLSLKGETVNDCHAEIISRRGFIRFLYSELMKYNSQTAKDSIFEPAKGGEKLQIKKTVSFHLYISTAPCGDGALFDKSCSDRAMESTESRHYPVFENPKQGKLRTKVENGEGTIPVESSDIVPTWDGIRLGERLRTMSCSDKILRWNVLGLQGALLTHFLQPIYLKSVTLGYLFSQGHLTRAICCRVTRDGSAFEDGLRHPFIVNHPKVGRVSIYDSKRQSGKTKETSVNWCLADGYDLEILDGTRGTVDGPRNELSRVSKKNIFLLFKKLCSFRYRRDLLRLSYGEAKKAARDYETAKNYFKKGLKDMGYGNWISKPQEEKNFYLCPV
The assay is described as above.

B1: ADAR1 (protein, UniProt P55265 1-1226)
chain: T2 sequence
As for B1, the binding entry in assay [1] is on record as “binds”.

B2: HNRNPL (protein, UniProt P14866 1-589)
chain: T1 sequence
As for B2, in assay [2], the binding result is recorded as “binds”.
